The other results are listed elsewhere or left out. Many values rest on one well or one pass, so single values are uncertain.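 The apoptosis fraction was the count of cleaved-PARP antibody-stained nuclei relative to all DNA-stained nuclei, imaged in 1,536-well plates. Screening doses were set so most cells survived, and baseline and induced cleaved-PARP levels vary greatly across cell lines.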
system: CBRC008 (line from a melanoma biopsy); assay: cleaved PARP positive nuclei fraction relative to DMSO control; melanoma cells; higher = more apoptosis; conditions: library dose: low library concentration; 72 h

| SMILES | cleaved PARP positive nuclei fraction |
| --- | --- |
| O=c1[nH]nc(Sc2ncc([N+](=O)[O-])s2)n1-c1ccc2c(c1)OCCO2 + c1cc(-c2cnn3cc(-c4ccc(OCCN5CCCCC5)cc4)cnc23)ccn1 [Dorsomorphin] (first compound 0.2 µM, partner dose 0.4 µM) | 53.5% |
| Cc1cc(Nc2cc(N3CCN(C)CC3)nc(Sc3ccc(NC(=O)C4CC4)cc3)n2)n[nH]1 [Tozasertib] + Oc1cc(-c2nc(-c3ccccc3)[nH]c2-c2ccncc2)ccc1Cl [L779450] (first compound 0.006 µM, partner dose 0.2 µM) | 122% |
| Cc1cc(Nc2cc(N3CCN(C)CC3)nc(Sc3ccc(NC(=O)C4CC4)cc3)n2)n[nH]1 [Tozasertib] + Cn1cc(/C=C2\C(=O)Nc3cccnc32)c2ccccc21 [GW441756] (first compound 0.006 µM, partner dose 0.4 µM) | 84% |
| Cc1cn(-c2cc(NC(=O)c3ccc(C)c(Nc4nccc(-c5cccnc5)n4)c3)cc(C(F)(F)F)c2)cn1 [nilotinib] + O=C(O)C(=O)Nc1sc2c(c1C(=O)O)CCNC2 [TCS401] (first compound 0.2 µM, partner dose 1.66667 µM) | 43.2% |
| Cc1cn(-c2cc(NC(=O)c3ccc(C)c(Nc4nccc(-c5cccnc5)n4)c3)cc(C(F)(F)F)c2)cn1 [nilotinib] + O=S(=O)(c1ccccc1)N(CC(F)(F)F)c1ccc(C(O)(C(F)(F)F)C(F)(F)F)cc1 [T0901317] (first compound 0.2 µM, partner dose 1.4 µM) | 229% |
| COc1cc([C@@H]2c3cc4c(cc3[C@@H](O[C@@H]3O[C@@H]5CO[C@@H](C)O[C@H]5[C@H](O)[C@H]3O)[C@H]3COC(=O)[C@H]23)OCO4)cc(OC)c1O [etoposide] + Cc1cc([N+](=O)[O-])ccc1NS(=O)(=O)c1cc(Cl)ccc1Cl [FH535] (first compound 0.02 µM, partner dose 1 µM) | 284% |
| N#CC[C@H](C1CCCC1)n1cc(-c2ncnc3[nH]ccc23)cn1 [ruxolitinib] + N#Cc1c(O)c2c(-c3ccc(-c4ccccc4O)cc3)csc2[nH]c1=O [A769662] (first compound 1 µM, partner dose 2 µM) | 102% |
| COc1cc([C@@H]2c3cc4c(cc3[C@@H](O[C@@H]3O[C@@H]5CO[C@@H](C)O[C@H]5[C@H](O)[C@H]3O)[C@H]3COC(=O)[C@H]23)OCO4)cc(OC)c1O [etoposide] + O=C1NC(=O)/C(=C/c2ccc(-c3ccc(F)cc3O)o2)S1 [AS252424] (first compound 0.02 µM, partner dose 1 µM) | 74.2% |
| COc1cc([C@@H]2c3cc4c(cc3[C@@H](O[C@@H]3O[C@@H]5CO[C@@H](C)O[C@H]5[C@H](O)[C@H]3O)[C@H]3COC(=O)[C@H]23)OCO4)cc(OC)c1O [etoposide] + CC(C)CCN1c2nc(Nc3cc(F)c(O)c(F)c3)ncc2N(C)C(=O)C1C [BID1870] (first compound 0.02 µM, partner dose 0.2 µM) | 219% |
| Cc1ccc(Nc2nccc(N(C)c3ccc4c(C)n(C)nc4c3)n2)cc1S(N)(=O)=O [Pazopanib] + CCN(CC)CCCCNc1ncc2cc(-c3cc(OC)cc(OC)c3)c(NC(=O)NC(C)(C)C)nc2n1 [PD173074] (first compound 0.4 µM, partner dose 0.1 µM) | 129% |
| Cc1cn(-c2cc(NC(=O)c3ccc(C)c(Nc4nccc(-c5cccnc5)n4)c3)cc(C(F)(F)F)c2)cn1 [nilotinib] + COc1ccc2c(c1)CCC1C2CCC2(C)C(NCCCCCCN3C(=O)C=CC3=O)CCC12 [U73122] (first compound 0.2 µM, partner dose 0.4 µM) | 51.8% |
| N#CC[C@H](C1CCCC1)n1cc(-c2ncnc3[nH]ccc23)cn1 [ruxolitinib] + COc1ccc2c(c1)CCC1C2CCC2(C)C(NCCCCCCN3C(=O)C=CC3=O)CCC12 [U73122] (first compound 1 µM, partner dose 0.4 µM) | 112% |
| CCCCCCCCCCCCCCCCCCOP(=O)([O-])OC1CC[N+](C)(C)CC1 [Perifosine] + O=C(O)C(=O)Nc1sc2c(c1C(=O)O)CCNC2 [TCS401] (first compound 0.4 µM, partner dose 1.66667 µM) | 89.8% |

Reformatted comma-delimited: entries from further up.
SMILES,cleaved PARP positive nuclei fraction
"Cc1cc(Nc2cc(N3CCN(C)CC3)nc(Sc3ccc(NC(=O)C4CC4)cc3)n2)n[nH]1 [Tozasertib] + Cn1cc(/C=C2\C(=O)Nc3cccnc32)c2ccccc21 [GW441756] (first compound 0.006 µM, partner dose 0.4 µM)",84%
"COc1cc([C@@H]2c3cc4c(cc3[C@@H](O[C@@H]3O[C@@H]5CO[C@@H](C)O[C@H]5[C@H](O)[C@H]3O)[C@H]3COC(=O)[C@H]23)OCO4)cc(OC)c1O [etoposide] + Cc1cc([N+](=O)[O-])ccc1NS(=O)(=O)c1cc(Cl)ccc1Cl [FH535] (first compound 0.02 µM, partner dose 1 µM)",284%
